Values of other authors, collected in US20220387435A1, “USE OF MULTI-TARGET PROTEIN KINASE INHIBITOR” (CSPC Zhongqi Pharmaceutical Technology (Shijiazhuang) Co., …, priority 2019, published 2022).
At least one compound was matched to its structure with a doubt left.

Tested on: AML patients
Settings: cited from earlier work

Compound: CO[C@@H]1[C@H](N(C)C(=O)c2ccccc2)C[C@H]2O[C@]1(C)n1c3ccccc3c3c4c(c5c6ccccc6n2c5c31)C(=O)NC4 [Midostaurin]
- death risk reduced (Rydapt in combination with chemotherapy vs chemotherapy alone, FLT3-positive AML): 23%
- CR rates in monotherapy for R/R AML (Sorafenib 400 mg BID, Midostaurin 50 mg BID, Quizartinib 30-60 mg QD, Gilteritinib 120 mg QD): <10%
